What all share (assay): DAPPL (digital affinity profiling via proximity ligation, sequencing)
Conditions in all cases: 10 mM Tris-HCl pH 7.5, 50 mM NaCl, 1 mM DTT, 4% glycerol, room temperature, 30 min; GST-TFs on glutathione beads, 16-mer random dsDNA library, 0.1% …; high values mean tight binding; double strand, one strand shown; scale: fold enrichment (6-mer frequency, TF over GST control)

By UniProt entry, the sequences of proteins in these tests, tags left out. Where a name states a change or a piece, a line headed by the entry shows the natural chain unless it says otherwise.
UniProt O43186: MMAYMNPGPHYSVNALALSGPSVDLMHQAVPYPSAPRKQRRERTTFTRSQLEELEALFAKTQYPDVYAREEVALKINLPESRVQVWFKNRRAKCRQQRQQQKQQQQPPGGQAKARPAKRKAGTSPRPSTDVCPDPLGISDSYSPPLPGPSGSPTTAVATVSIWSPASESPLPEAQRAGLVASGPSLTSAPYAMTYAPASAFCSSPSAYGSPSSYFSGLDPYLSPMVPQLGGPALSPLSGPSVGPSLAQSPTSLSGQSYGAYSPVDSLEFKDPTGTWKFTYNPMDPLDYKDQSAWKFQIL

For assay [1], the target named is T1, FEV (UniProt Q99581).
T1 sequence: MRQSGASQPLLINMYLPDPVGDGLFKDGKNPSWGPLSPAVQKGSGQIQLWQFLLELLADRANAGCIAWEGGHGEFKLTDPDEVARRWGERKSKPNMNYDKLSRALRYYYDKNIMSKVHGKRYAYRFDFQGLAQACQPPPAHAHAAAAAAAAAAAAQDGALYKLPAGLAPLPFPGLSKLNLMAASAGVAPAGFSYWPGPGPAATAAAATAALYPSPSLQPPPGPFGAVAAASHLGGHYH

In assay [2] the target is CRX (UniProt O43186).
Assay [3] deals with T2, ELF5 (UniProt Q9UKW6-2).
T2 sequence: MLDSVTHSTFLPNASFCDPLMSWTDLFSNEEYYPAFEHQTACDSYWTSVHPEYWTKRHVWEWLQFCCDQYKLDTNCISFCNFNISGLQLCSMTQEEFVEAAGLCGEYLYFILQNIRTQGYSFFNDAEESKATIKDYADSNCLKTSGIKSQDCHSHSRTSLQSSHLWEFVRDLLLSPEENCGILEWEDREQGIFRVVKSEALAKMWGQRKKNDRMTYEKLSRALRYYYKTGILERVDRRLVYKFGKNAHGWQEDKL

The record followed here is article PMC7862700.

The list shows a part of the results, in another mix than the full data. At the low end of the ranking the order means little.

ACAGCG: the binding signal was determined as 0.815 in assay [1], 0.618 in assay [2] and 0.807 in assay [3].

For the sequence GAGCTA, the binding signal in assay [1] turned out to be 0.906; in assay [2] it was 0.959; in assay [3] it was 0.845.

As for GGGAAT, the figures for the binding signal in assay [1], in assay [2] and in assay [3] were 0.77, 0.902 and 0.793, respectively.

With AACCAG, the binding signal in assay [1] is 0.823; in assay [2], 0.71; in assay [3], 0.856.

Consider GGAGCA, for which the binding signal in assay [1] was 0.465; in assay [2] it was 0.365; in assay [3], 0.458.

For ACGTAG, the binding signal came out at 0.762 in assay [1], 0.675 in assay [2] and 0.774 in assay [3].

ACGTGA: the binding signal turned out to be 0.263 in assay [1], 0.241 in assay [2] and 0.258 in assay [3].

Regarding GTGGTG, the binding signal in assay [1] amounted to 0.815; in assay [2] it was 0.592; in assay [3], 0.868.

With CACAGG, the binding signal turned out to be 0.938 in assay [1], 0.641 in assay [2] and 0.897 in assay [3].

GTCGGG: the binding signal in assay [1] was determined as 0.213; in assay [2], 0.184; in assay [3], 0.223.

Consider GTAGGT, for which the binding signal in assay [1] amounted to 0.769; in assay [2] it was 0.628; in assay [3], 0.805.

For GTCGTC, the binding signal in assay [1] came to 0.662; in assay [2], 0.49; in assay [3], 0.741.

With TCAGGG, the binding signal in assay [1] was 0.793; in assay [2], 0.892; in assay [3], 0.839.

Regarding GGAGTT, the binding signal amounted to 0.399 in assay [1], 0.384 in assay [2] and 0.422 in assay [3].

As to CGCAGA, the figures for the binding signal in assay [1], in assay [2] and in assay [3] were 0.793, 0.737 and 0.714, respectively.

Regarding AGGTAC, the figures for the binding signal in assay [1], in assay [2] and in assay [3] were 0.91, 0.724 and 0.917, respectively.

On to CGGACG, for which the binding signal in assay [1] came to 0.499; in assay [2] it was 0.276; in assay [3], 0.492.

For the sequence GACGGT, the binding signal in assay [1] turned out to be 0.411; in assay [2], 0.331; in assay [3], 0.453.

Take GTGGGT: the binding signal in assay [1] came to 0.439; in assay [2], 0.373; in assay [3] it was 0.445.

For GAGGTT, the binding signal is 0.654 in assay [1], 0.748 in assay [2] and 0.761 in assay [3].

For CAGTAC, the binding signal in assay [1] was 0.879; in assay [2] it was 0.682; in assay [3] it was 0.798.

Consider GGGCAC, for which the binding signal in assay [1] was determined as 0.812; in assay [2] it was 0.553; in assay [3], 0.735.

On to GAGTCC, for which the values for the binding signal in assay [1], in assay [2] and in assay [3] were 0.38, 0.312 and 0.388, respectively.

Regarding GAGCAC, the values for the binding signal in assay [1], in assay [2] and in assay [3] were 0.725, 0.533 and 0.636, respectively.

Regarding CCCGAG, the values for the binding signal in assay [1], in assay [2] and in assay [3] were 0.878, 0.781 and 0.792, respectively.

Consider GACGAT, for which the figures for the binding signal in assay [1], in assay [2] and in assay [3] were 0.869, 0.968 and 0.875, respectively.

For AGTCAG, the values for the binding signal in assay [1], in assay [2] and in assay [3] were 0.504, 0.397 and 0.501, respectively.

Turning to GGTAGT, the values for the binding signal in assay [1], in assay [2] and in assay [3] were 0.676, 0.522 and 0.799, respectively.

With GCGAGG, the binding signal in assay [1] turned out to be 0.575; in assay [2], 0.522; in assay [3] it was 0.63.

As for GGAGGA, the binding signal in assay [1] was 0.26; in assay [2] it was 0.22; in assay [3], 0.291.

On to ATCAGT, for which the figures for the binding signal in assay [1], in assay [2] and in assay [3] were 0.828, 0.96 and 0.76, respectively.

In the case of GAAGAG, the binding signal in assay [1] is 0.841; in assay [2] it was 0.69; in assay [3], 0.958.

On to AGATAG, for which the figures for the binding signal in assay [1], in assay [2] and in assay [3] were 0.784, 0.903 and 0.789, respectively.

In the case of GAGAGG, the binding signal in assay [1] is 0.49; in assay [2], 0.439; in assay [3], 0.489.

With GGGTTG, the values for the binding signal in assay [1], in assay [2] and in assay [3] were 0.817, 0.575 and 0.804, respectively.

As for GGGCGT, the binding signal in assay [1] was determined as 0.462; in assay [2] it was 0.361; in assay [3], 0.461.
